Source: PubChem BioAssay AID1794845 (National Center for Advancing Translational Sciences (NCATS), 2023)
The campaign covered roughly 6,900 compounds. Fewer than 10 were called active. Calls follow the shape of the dose curve; as a rule, active = well fitted curve in the direction sought with a large enough effect; inconclusive = small, poorly fitted or top-dose-only effect, or another doubt; inactive = no such curve, though single readings can be large or run the other way. This is one part of the list.

The chains behind the UniProt entries cited, without tags or fusion partners. Where a name states a change or a piece, a line headed by the entry shows the natural chain unless it says otherwise.
UniProt C7C422: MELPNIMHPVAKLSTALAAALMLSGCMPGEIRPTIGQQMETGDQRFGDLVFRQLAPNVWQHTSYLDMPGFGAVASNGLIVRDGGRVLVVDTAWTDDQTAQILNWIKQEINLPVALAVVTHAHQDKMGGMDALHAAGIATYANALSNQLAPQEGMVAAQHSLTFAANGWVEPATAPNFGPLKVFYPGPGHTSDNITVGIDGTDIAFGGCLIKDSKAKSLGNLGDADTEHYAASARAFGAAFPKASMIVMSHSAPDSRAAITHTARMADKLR

Biological target: Metallo-beta-lactamase type 2 (Klebsiella pneumoniae) (UniProt C7C422)
Assay: qHTS to identify inhibitors of the New Delhi Metallo-beta-lactamase (NDM): primary screen against the NCATS Gemini Collection; also: % of control where 0% means no effect
Settings: NDM-1 enzyme, meropenem hydrolysis, absorbance 300 nm; at 38.4 µM (top of the series) unless noted
Outline: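 NDM-1 at 2 nM final in 50 mM HEPES pH 7.0, 1 uM ZnSO4, 0.01% Tween20, preincubated >30 min with compound. Meropenem 50 uM final added; absorbance at 300 nm after 30 min.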

Activity % (negative = inhibition), inactive:
Cc1ncc2n1C(=O)N(C1CCN(C(=O)NC3CCCC3)CC1)C2 -4.48% [at 57.5 µM], O=C(N[C@@H]1CN(C(=O)Nc2ccc(F)cc2)CCC[C@H]1O)c1ccc(OCCN2CCCC2)cc1 18.9%, CNC(=O)c1[nH]nc2c1C(c1cc(OC)ccc1-n1cccn1)CC(=O)N2 (centres undefined) -4.76%, CN1CCCC2(C1)CN(C)c1ccc(C(=O)NCC3CCCCC3)cc12 (centres undefined) 13% [at 57.5 µM], Cc1noc(C)c1S(=O)(=O)N1CC(C(=O)NC2CCCCC2)C2(CCOCC2)C1 (centres undefined) -6.52%, O=C(NC1CCCCC1)[C@@H]1C[C@@H](O)CN1C1CCN(C(=O)c2ccccc2F)CC1 0.659%, CCc1nccn1Cc1nnc(C2CC(N)C2)n1CCOC (centres undefined) 1.49%, O=C(NCCNC(=O)c1ccccc1F)c1ccc(-c2cncnc2)cc1 1.93%, CCN1c2cc(C(=O)NCc3ccncc3)ccc2C(=O)N2CCCCC21 (centres undefined) -12.3%, Cc1cc(C(=O)NC[C@@H]2OC[C@@]3(C)[C@H]4CC[C@@H](O)[C@@H](CC(=O)N5CCCC5)[C@]4(C)CC[C@H]3O2)no1 8.32%, Cc1ccc(OC(C)c2nc(-c3cccnn3)no2)cc1C (centres undefined) -4.27%, Fc1ccccc1CN1CCCC2(CCN(c3cnccn3)C2)C1 (centres undefined) -2.42%, CN1C[C@@H](NC(=O)CC(C)(C)CC(=O)O)C[C@H]1c1nc(-c2ccccn2)no1 10.1% [at 57.5 µM], Cc1ccc(CN2CCCCCCNC(=O)[C@@H]3C[C@@H](C(=O)NCCc4cnc[nH]4)C[C@@H]32)o1 -2.22%, CCN1CCC(N2CCC3(CC2)CC2C(=O)N(CC)C(=O)N2C3)CC1 (centres undefined) 16.5%, CCC(=O)N1CCc2sc(C(=O)N3CCN(c4cccc(Cl)c4)CC3)cc2C1 -0.0197%, O=C(Nc1ccccc1)NC1CCN(CCn2nc3n(c2=O)CCCC3)C1 (centres undefined) 5.55%, Cc1ccc(CN2CCC([C@@H]3CNC[C@H]3CO)CC2)s1 45.9%, COc1cccc(CCNC(=O)c2c(C)noc2-c2ccco2)c1 5.94%, COCc1noc([C@@H]2CN(C(=O)C3CC=CCC3)C[C@H]2C(N)=O)n1 (some centres undefined) -0.867%, O=C1CCN(C(=O)CCc2nc3ccccc3s2)CCCCCCN1 23.1%, Cc1nc(-c2cn(C3CCCN(C(=O)c4ccc(Cl)s4)C3)nn2)no1 (centres undefined) 3.08%, O=C(C1CCCC1)N1CC2(CCN(Cc3ccc(Cl)cc3)C2)Cc2ccccc21 (centres undefined) -3.84%, CCCN1CCC(N2C[C@H]3OC(=O)N(CCc4cccc(Cl)c4)[C@H]3C2)CC1 15.5%, CCc1cccc(-n2nnnc2N2CCN(C(=O)Cc3ccc(C)c(F)c3)CC2)c1 0.125%, COc1ccc(OC)c(-c2cc(Cl)c3c(c2)CC(CNC(=O)c2c(F)cccc2F)O3)c1 (centres undefined) 0.991%, CN(C)c1cccc(-c2cnc(Nc3cnccn3)c3c2CCO3)c1 -0.306% [at 57.5 µM], Cc1cc2ncc(C(=O)NC(C)CCc3ccccc3)cn2n1 (centres undefined) 8.7% [at 57.5 µM], COCc1cc(C[C@@H]2CC[C@H](O)[C@@H](CNCc3ccc(Cl)cc3)O2)no1 32.3% [at 57.5 µM], O=C(c1ccccc1OCC1CCCNC1)N1CCOCC1 (centres undefined) 42.4%, COc1ccccc1CCN1CCCC(CN(C)C(=O)CN2C(=O)CNC2=O)C1 (centres undefined) 4.05%, CCn1ccnc1CNC(=O)c1cc(OC)ccc1OC1CCN(C(=O)C2CC2)CC1 29%, Cc1ccccc1-c1cnc2[nH]cc(CC(=O)N3CCOCC3)c2c1 12.1% [at 57.5 µM], O=C(C[C@@H]1C[C@H]2O[C@H](CNC3CCOCC3)[C@@H](O)[C@H]2O1)N1CCC(F)(F)C1 4.71% [at 57.5 µM], CNC(=O)N1CCC(C2CCN(C(=O)c3cnn(C)c3)C2)CC1 (centres undefined) 50.7%, COc1ccc2cc1Nc1ccc(cc1)C[C@H](NCc1ccc(C)o1)C(=O)N(C)[C@H](C(=O)NCCC(C)C)C2 4.93%, Cc1nnnn1CC(=O)N1CCCC(c2ccccc2)(c2ccccc2)C1 4.78%, CC#CC(=O)N1CCCC(C(=O)Nc2ccc(-c3cccc(OC)c3)cc2)C1 (centres undefined) 13.9%, O=C(N[C@H]1C[C@@H](CO)N(CC2CCCCC2)C1)c1cccnc1 0.266%, CN(C)C[C@H]1O[C@H](Cc2cc(CN(C)Cc3ccccc3)on2)CC[C@@H]1O -1.96% [at 57.5 µM], COC(=O)N(C)Cc1cccc(N2CCN(S(=O)(=O)c3cccc4ccccc34)CC2)c1F 23.6%, COc1ccc2c(C)c(C(=O)N3CCCCC3c3cc(C)on3)oc2c1 (centres undefined) 54.4%, CCOc1ccc(N(CC)C(=O)c2ccc3c(c2)N(S(C)(=O)=O)CC3)cc1 0.156%, COCCN(Cc1nccs1)Cc1cn[nH]c1-c1ccc(F)cc1 29.8%, O=C(c1ccc(Br)o1)N1C[C@@H](CO)[C@H](c2ccncc2)C1 -3.66%, COc1cccc(C(=O)N2CCC(C(NC(=O)CC(C)C)C(=O)NCC(C)C)CC2)c1 (centres undefined) -2.17%, CCOC(=O)N1CCC(NC)CC1 14.2% [at 57.5 µM], O[C@H]1[C@H](NCc2ccco2)[C@H]2CO[C@H](O2)[C@@H]1N1CCC(Cc2ccccc2)CC1 -4.57% [at 57.5 µM], c1csc(CN2CCC(Oc3ccccc3-c3nc(-c4cnccn4)no3)C2)c1 (centres undefined) 3.44%, Cc1ccc(-c2cc(N3CCCN(C(=O)c4ccccc4F)CC3)n[nH]2)cc1C 10.7%, CN1CCN(C(=O)C2CCCCC(=O)N2)CC1 (centres undefined) 18.1%, O=C(NCc1ccc(F)cc1)c1nc2sccn2c1Br -1.31%, O=C(COc1ccccc1)NCC1CCCCC(=O)N1 (centres undefined) -0.178%, COc1ccc(CN2Cc3[nH]cnc3C[C@H]2C(=O)N2CCC(Cc3ccccc3)CC2)cc1 6.6%, Cc1ccc(C)c(NC(=O)N2CCC(n3cnnc3C3CC3)C2)c1 (centres undefined) -1.9%, COC1CCCN(c2cc(-c3cccnc3)nc3c(C)noc23)C1 (centres undefined) 12.9% [at 57.5 µM], CCn1cc(C(=O)N2C[C@H](CO)C[C@H](CN3CCCC3)C2)c(C)n1 -2.87%, COc1ccc(-c2noc(C(=O)NC(C)C)c2[C@H](C)O)cc1 0.0539% [at 57.5 µM], OCC1CN(c2ncccn2)CC12CCN(Cc1ccsc1)CC2 (centres undefined) 5.64%, COc1ccc(C(=O)N2CC(=O)N(c3ccc(C)cc3)CC2C)c(OC)n1 (centres undefined) -0.619%, CC1CCN(C(=O)CN2C(=O)NC3(CCCCC3)C2=O)CC1 0.688%, COc1ccc(NC(=O)CC2CCCCN(C)C2=O)cc1OC (centres undefined) 2.39%, Cc1cc(C)n(CCC(=O)N2CCC(C3CCN(S(C)(=O)=O)CC3)C2)n1 (centres undefined) -0.0018%, CC(C)CN(Cc1cccnc1)C1CN(S(=O)(=O)Cc2ccccc2F)C1 -3.56%, O=C(NC[C@H]1OC[C@@H](NCc2ccccc2O)[C@@H]1O)c1ccc(F)cc1 -1.63% [at 57.5 µM], O=C1NC(=NC2CCCCC2)C2(CCN(CC3CCCCC3)CC2)N1c1cc(F)cc(F)c1 5.03%, O=C(Cc1ccc(C(F)(F)F)cc1)N1CC(COc2ccccc2)C2(C1)CN(C(=O)c1cn[nH]c1)C2 (centres undefined) 3.36%, O=C(N1CCOCC1)N1C2CCC1CN(c1ccc(C(F)(F)F)cc1)C2 1.43%, CC(=O)NC[C@H]1CCN(Cc2ccc(Cl)cc2F)C[C@H]1N(C)C -2.48%, CCc1n[nH]c(CC2CCN(C(=O)C3CC3)CC2)n1 -8.39%, Cc1nc(CC(=O)N2CCCC3(CCC(=O)N(CCC(C)C)C3)C2)cs1 (centres undefined) -1%, Cc1noc(-c2ccc(N3CCN(Cc4nccn4C)CC3)nc2)n1 10.1%, Cc1ccc(C2(O)CCN(C(=O)CCC3NC(=O)NC3=O)CC2)nc1 (centres undefined) -0.522%, O=C(c1ccc(-c2ccc(N3CCCCCC3)nc2)cc1)N1CCCC1 66.4%, CNC(=O)[C@@H]1CN(C(=O)c2cccc(C)n2)C[C@H]1COC 19.6%, O=C(c1ccncc1)N1CC(Oc2ccc(-c3noc(-c4ccccc4)n3)cc2)C1 30.5%, Cc1ccc(CNC(=O)CN2C(=O)C(c3ccccc3)=NC23CCCCC3)cc1 10.2%, FC(F)(F)c1ccc(N2C3CCC2CN(Cc2ccc(-c4cccs4)cc2)C3)cc1 -11.4%, C=CCNC(=O)N[C@H]1C[C@H]2C(=O)Nc3ccc(/C=C/c4ccc(OC)cc4)cc3C(=O)N2C1 10%, COc1ccc(-c2cc(N3CCC(NC(=O)c4ccncc4)C3)n[nH]2)cc1 (centres undefined) 11.6%, O=c1ccc(NS(=O)(=O)c2ccccc2)c2n1C[C@H]1C[C@@H]2CN(S(=O)(=O)c2ccccc2)C1 25.2%, COc1cccc([S+](=O)([O-])N2CCC3(CC(C)=NO3)C2)c1 (centres undefined) 5.53% [at 57.5 µM], Cc1cc(C(=O)N2CCCn3ccnc3C2c2ccccc2)n(C)n1 (centres undefined) -2.37%, O=C(c1cnccn1)N1CCN2C(=O)N(C3CCOCC3)C[C@H]2C1 1.38% [at 57.5 µM]
